Test results as given in PMC6916386.
These are yes or no findings as the source states them, for the method shown. For some assays here: In cells and extracts the contact can be indirect. Some results given as binding are weak or reduced against the parent protein; the word gives no strength. Sequences can lack the tags named with a protein.

T1: eukaryotic translation initiation factor 4G1 fused to GST (eIF4G1-GST) (yeast), P39935
T1 chain: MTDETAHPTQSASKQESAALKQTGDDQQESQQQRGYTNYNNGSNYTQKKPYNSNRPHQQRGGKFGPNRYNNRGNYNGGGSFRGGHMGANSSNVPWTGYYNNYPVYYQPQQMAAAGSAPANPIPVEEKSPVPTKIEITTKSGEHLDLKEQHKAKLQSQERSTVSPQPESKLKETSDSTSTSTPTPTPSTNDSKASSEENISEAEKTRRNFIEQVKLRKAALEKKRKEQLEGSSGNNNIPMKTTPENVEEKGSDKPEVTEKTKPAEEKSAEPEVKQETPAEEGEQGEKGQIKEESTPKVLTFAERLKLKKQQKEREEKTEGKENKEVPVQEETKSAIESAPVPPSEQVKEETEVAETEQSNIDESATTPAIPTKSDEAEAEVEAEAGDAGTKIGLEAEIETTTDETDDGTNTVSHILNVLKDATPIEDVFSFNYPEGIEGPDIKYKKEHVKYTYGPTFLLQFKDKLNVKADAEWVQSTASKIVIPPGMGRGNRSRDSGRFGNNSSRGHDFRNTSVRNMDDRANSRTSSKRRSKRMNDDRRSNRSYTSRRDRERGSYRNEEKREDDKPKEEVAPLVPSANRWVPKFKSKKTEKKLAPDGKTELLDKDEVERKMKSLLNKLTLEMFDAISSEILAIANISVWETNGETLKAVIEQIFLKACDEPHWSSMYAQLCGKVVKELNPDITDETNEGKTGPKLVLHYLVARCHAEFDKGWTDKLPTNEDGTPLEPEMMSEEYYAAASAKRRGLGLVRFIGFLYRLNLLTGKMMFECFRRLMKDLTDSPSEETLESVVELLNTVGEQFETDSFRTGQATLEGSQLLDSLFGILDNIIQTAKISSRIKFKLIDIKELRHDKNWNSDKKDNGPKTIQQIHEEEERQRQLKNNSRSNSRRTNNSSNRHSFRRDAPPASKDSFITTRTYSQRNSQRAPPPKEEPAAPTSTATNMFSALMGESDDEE


Assays:
[1] = target: T1, eukaryotic translation initiation …; test: pull-down; 100 picomoles of purified GST or eIF4G1-GST added to lysate of yeast overexpressing Sbp1 or mutants (galactose induction 6 h in wild type, 5 h for Δhmt1); glutathione beads; 50 mM HEPES pH 7.5, 100 mM NaCl, 1% Triton X, 2 mM MgCl2, 2 mM MnCl2, RNase A 1 mg/mL, 1 mM DTT, BSA 10 mg/mL; 4 °C, 30 min; Sbp1 detected with PAP reagent; only the target purified; conditions: remark: other sources report otherwise
[2] = target: T1, eukaryotic translation initiation …; test: pull-down; 100 pm of eIF4G1-GST and GST, 20 pm of purified Sbp1 (methylated or unmethylated); glutathione beads; same binding and wash buffer as the lysate assay; binding for 2 h; both purified; conditions: remark: other sources report otherwise

binding [1] | binding [2] | Binder
binds |  | Sbp1, wild-type sequence, galactose-inducible with ZZ (protein A) tag, overexpressed in the Δhmt1 strain, P10080 1-294 (protein) MSAEIEEATNAVNNLSINDSEQQPRAPTHKTVIDPEDTIFIGNVAHECTEDDLKQLFVEEFGDEVSVEIPIKEHTDGHIPASKHALVKFPTKIDFDNIKENYDTKVVKDREIHIKRARTPGQMQRGGFRGRGGFRGRGGFRGGFRGGYRGGFRGRGNFRGRGGARGGFNGQKREKIPLDQMERSKDTLYINNVPFKATKEEVAEFFGTDADSISLPMRKMRDQHTGRIFTSDSANRGMAFVTFSGENVDIEAKAEEFKGKVFGDRELTVDVAVIRPENDEEEIEQETGSEEKQE
 | binds | His-Sbp1-FLAG, recombinant, unmethylated, P10080 1-294 (protein) MSAEIEEATNAVNNLSINDSEQQPRAPTHKTVIDPEDTIFIGNVAHECTEDDLKQLFVEEFGDEVSVEIPIKEHTDGHIPASKHALVKFPTKIDFDNIKENYDTKVVKDREIHIKRARTPGQMQRGGFRGRGGFRGRGGFRGGFRGGYRGGFRGRGNFRGRGGARGGFNGQKREKIPLDQMERSKDTLYINNVPFKATKEEVAEFFGTDADSISLPMRKMRDQHTGRIFTSDSANRGMAFVTFSGENVDIEAKAEEFKGKVFGDRELTVDVAVIRPENDEEEIEQETGSEEKQE
